Usually AC50 stands for the concentration giving half of the maximal activity seen.

Where “and” joins values, the source holds several entries; their conditions need not be identical. Identical values can stand only once. The list shows a part of the results. Shown are side measurements of this screen, not its main read-out; they come without a call. Most of these compounds were active or inconclusive in the main read-out, so they are no random draw. The note in brackets gives the kind of curve behind each potency; many fits are weak.

AC50 data for 55 molecules are collected here from PubChem BioAssay AID1487 (National Center for Advancing Translational Sciences (NCATS), 2009).

This assay in a line: qHTS Assay for Modulators of Lamin A Splicing. Conditions: HeLa LMNA splicing GFP/RFP minigene ratio, 48 h. The method, boiled down:
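S3 HeLa cells stably expressing lamin A-EGFP splicing minigene plus DsRed2, 600 cells/well, 48 h compound exposure at 37C. Laser-scanning cytometry; analysed as GFP (500-530 nm)/RFP (575-640 nm) total intensity ratio; 0.5% DMSO vehicle.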
(In general: qHTS replaces the single test concentration by a dilution series.)

Where [1] appears, read: measured here: RFP viability control channel.
[2] abbreviates: measured here: GFP splicing reporter channel.

On to `O=C(Nc1nc2c(F)cccc2s1)c1ccc2c(c1)OCCO2`, for which the AC50 under setting [1] is 31.6 µM [rising, single point].
In the case of `O=S(=O)(c1ccc(Cl)cc1)N1CCCC(C(F)(F)F)C1` (stereo not given), the concentration at half-maximal activity (AC50) under setting [2] was 0.282 µM [rising, full curve, poor fit].
Turning to `COc1cc(COCC(O)CN2CCN(CCN3C(=O)c4cccc5cccc(c45)C3=O)CC2)cc(OC)c1OC` (stereo not given), the AC50 reads like this: under setting [2], 14.1 µM [rising, single point]; under setting [1], 17.8 µM [rising, single point].
For `O=C(CSCc1ccccc1Cl)N/N=C/c1ccco1`, the AC50 under setting [2] is 5.62 µM [rising, single point].
`CCc1cc[n+](-c2nc3ccccc3nc2[N-]S(=O)(=O)c2ccc(Br)s2)cc1`: the concentration at half-maximal activity (AC50) under setting [1] was 11.2 µM [rising, single point].
As for `O=C(NNS(=O)(=O)c1ccc2ccccc2c1)c1cccnc1`, the concentration at half-maximal activity (AC50) under setting [2] was 11.2 µM [rising, partial curve, poor fit] and the half-maximal activity concentration (AC50) under setting [1] was 17.8 µM [rising, single point].
`O=C(c1c[nH]c(C(=O)C(Cl)(Cl)Cl)c1)c1ccc(F)cc1Cl`: under setting [1], the half-maximal activity concentration (AC50) was 31.6 µM [falling, single point].
For `CCc1cc(SC#N)cc(C)c1NC(=O)CCl`, under setting [1], the AC50 was 10 µM [falling, partial curve].
The same measure, in the same setting: for `CC12CCC(C(=O)Nc3c(Cl)cccc3Cl)(C(Br)C1=O)C2(C)C` (stereo not given) the value was 35.5 µM [rising, single point].
Consider `COc1ccc(-c2nc3n(n2)C(c2ccccc2)C(C(=O)Nc2cccnc2)=C(C)N3)cc1` (stereo not given), for which the AC50 under setting [2] is 14.1 µM [falling, single point].
`CN1CCN(CC(=O)N2c3ccccc3C(=O)Nc3cccnc32)CC1`: the AC50 is, setting by setting: under setting [2], 39.8 nM [falling, full curve, poor fit] and 3.98 nM [falling, full curve, poor fit]; under setting [1], 126 nM [rising, full curve, poor fit] and 22.4 µM [falling, partial curve] and 17.8 µM [rising, single point].
For `Cc1c(C(=O)NCc2ccc(Cl)cc2)sc2nc3n(c(=O)c12)CCC3`, under setting [1], the half-maximal activity concentration (AC50) was 31.6 µM [rising, single point].
On the same count and under the same terms, for `COc1ccc(NC(C)C(=O)N/N=C/c2cc(Br)ccc2OC)cc1` (stereo not given) the value was 3.16 µM [falling, partial curve, poor fit].
Take `CC(C)(C)SCCNC(=O)c1cccc([N+](=O)[O-])c1`: the AC50 is 12.6 µM [rising, single point] under setting [2] and 15.8 µM [rising, single point] under setting [1].
With `CCc1cc[n+](-c2nc([O-])sc2C=O)cc1`, under setting [1], the AC50 was 0.141 µM [falling, partial curve, poor fit].
The same measure, in the same setting: for `CO/C=C\C=C/c1nnn(-c2ccc(Cl)cc2)n1` the value was 0.0891 µM [falling, full curve, poor fit]; for `Cc1nc(NC(=O)CSc2cc(C)c3ccccc3n2)c(Cl)cc1Cl`, 12.6 µM [rising, partial curve, poor fit].
For `N#CC(=C=[N-])C1=C(C#N)C(c2ccccc2F)C([n+]2ccccc2)C(O)(C2CC2)N1` (stereo not given), the concentration at half-maximal activity (AC50) is 5.62 µM [falling, single point] under setting [2] and 4.47 µM [falling, partial curve] under setting [1].
With `COc1ccc(-c2csc(NC(=S)NC(=O)/C=C/c3ccco3)n2)cc1Br`, under setting [1], the AC50 was 25.1 µM [falling, single point].
Regarding `Cc1cc(C)nc(NC(=O)c2c(-c3ccccc3Cl)noc2C)c1`, the AC50 is 12.6 µM [rising, partial curve] under setting [2] and 31.6 µM [rising, single point] under setting [1].
For the molecule `COC(=O)c1c(NC(=O)c2ccccc2)sc(C(N)=O)c1C`, the AC50 under setting [2] is 3.98 µM [rising, single point].
For the molecule `CS(=O)(=O)Nc1cccc(C2=NN(S(C)(=O)=O)C(c3ccc4c(c3)OCO4)C2)c1` (stereo not given), the AC50 is, setting by setting: under setting [2], 12.6 µM [rising, single point]; under setting [1], 17.8 µM [rising, single point].
Take `COC(=O)c1ccc2c(=O)n(CCCCCC(=O)N3CCN(c4cccc(C)c4C)CC3)c(=O)[nH]c2c1`: the AC50 is 0.00355 µM [falling, full curve, poor fit] under setting [2] and 0.00316 µM [falling, full curve, poor fit] under setting [1].
`CC(=O)c1cccc(NC(=O)C2C(c3ccccc3)C2(Cl)Cl)c1` (stereo not given): the half-maximal activity concentration (AC50) under setting [1] was 2.24 µM [rising, full curve, poor fit].
On to `S=C(NCc1ccco1)NCC1CCCO1` (stereo not given), for which the concentration at half-maximal activity (AC50) under setting [1] is 17.8 µM [falling, single point].
For `CCCC(c1nnnn1C1CCCC1)N1CCN(c2ccccc2F)CC1` (stereo not given), the AC50 under setting [1] was 0.112 µM [falling, full curve, poor fit].
Still for that read-out and setting: for `CCOC(=O)c1sc(NC(=O)c2ccc(S(=O)(=O)N(C)C)cc2)cc1C` the value was 25.1 µM [rising, single point]; for `O=C(Cn1cc(C(=O)c2cccs2)c2ccccc21)NC1CCCCC1`, 20 µM [rising, single point].
On to `COc1ccc(CCNc2nc(-c3ccc(NC(C)=O)cc3)cs2)cc1OC`, for which the AC50 by setting is: under setting [2], 35.5 µM [rising, single point]; under setting [1], 35.5 µM [rising, single point].
In the case of `NC(N)=NS(=O)(=O)c1ccc(NC(=S)NC(=O)/C=C/c2cccs2)cc1`, the AC50 under setting [1] was 6.31 µM [falling, partial curve, poor fit].
Regarding `COc1cc2c(cc1NC(=O)COC(=O)[C@@H](NS(=O)(=O)c1ccccc1)C(C)C)oc1ccccc12`, the concentration at half-maximal activity (AC50) was 20 µM [rising, partial curve] under setting [2] and 35.5 µM [rising, single point] under setting [1].
Regarding `Cc1ccc(S(=O)(=O)N/N=C/c2c[nH]c3ccccc23)cc1`, the AC50 under setting [2] is 1.12 µM [falling, partial curve, poor fit].
Consider `CC(C)Oc1ccc(C(=O)N2CCCc3ccccc32)cc1`, for which the AC50 under setting [2] is 11.2 µM [rising, single point] and the AC50 under setting [1] is 10 µM [rising, single point].
`CCOC(=O)/C(=C/c1c(C)n(C)c2ccc([N+](=O)[O-])cc12)C(C)=O`: the AC50 is, setting by setting: under setting [2], 8.91 µM [rising, partial curve]; under setting [1], 11.2 µM [rising, partial curve].
Turning to `O=C(/C=C\c1ccc2c(c1)OCO2)NC1(C(=O)Nc2ccc3c(c2)OCO3)CCCCC1`, the AC50 under setting [2] is 35.5 µM [rising, single point].
For the molecule `Cc1onc(-c2ccccc2)c1C(=O)Nc1sc2c(c1C#N)CCC2`, the concentration at half-maximal activity (AC50) under setting [1] is 35.5 µM [rising, single point].
In the case of `COc1ccccc1-c1nnc(SCC(=O)c2ccc(C3CCCCC3)cc2)n1Cc1ccco1`, the half-maximal activity concentration (AC50) under setting [2] is 35.5 µM [falling, single point].
As to `c1ccc2c(c1)COC(CN1CCCCC1)OC2`, the AC50 was 0.00631 µM [falling, full curve] under setting [2] and 0.447 µM [falling, full curve, poor fit] under setting [1].
With `OCCN1CCN(c2ncnc3c2sc2nc(N4CCOCC4)c4c(c23)CCC4)CC1`, the AC50 under setting [1] was 31.6 µM [rising, single point].
Same read-out and setting: for `CCN(CC)S(=O)(=O)c1cc(NC(=O)C(C)N(C)CC(=O)Nc2c(C)cccc2C)ccc1C` (stereo not given) the value was 8.91 µM [rising, partial curve].
As to `O=C(Nc1ccc(Cl)c(Cl)c1)N1CC=CCC1`, the AC50 was 15.8 µM [rising, single point] under setting [2] and 22.4 µM [rising, single point] under setting [1].
`CC(C)CCNc1nc(N2CCCC2)c2c(c1C#N)CCN(C)C2`: the concentration at half-maximal activity (AC50) under setting [1] is 35.5 µM [rising, single point].
On the same count and under the same terms, for `Cc1cc(-c2nn(-c3ccccc3F)cc2CN2CCC(O)CC2)c(C)s1` the value was 0.02 µM [falling, full curve, poor fit].
As to `Nc1ccc2c(c1)C(=O)C(=O)c1ccccc1-2`, the AC50 is 3.55 µM [falling, full curve] under setting [2] and 3.55 µM [falling, full curve] under setting [1].
`NCc1c(O)ccc2ccccc12`: the half-maximal activity concentration (AC50) under setting [2] is 0.112 µM [rising, single point].
Take `COc1ccc(-n2c(C)cc(C(=O)CN3C(=O)NC4(CCc5ccccc54)C3=O)c2C)cc1` (stereo not given): the AC50 reads like this: under setting [2], 35.5 µM [rising, single point]; under setting [1], 22.4 µM [rising, single point].
On to `O=C(/C=C/c1ccc(Br)cc1)NCc1cccs1`, for which the AC50 is 22.4 µM [rising, single point] under setting [2] and 22.4 µM [rising, single point] under setting [1].
For the molecule `COc1cccc(C2/C(=C(/O)c3cnn(-c4ccccc4)c3C)C(=O)C(=O)N2CCN(C)C)c1OC` (stereo not given), the concentration at half-maximal activity (AC50) under setting [1] was 10 µM [rising, partial curve].
Regarding `CC1(C)CC(=O)C2=C(C1)Nc1[nH]n(-c3ccccc3)c(=O)c1C2c1ccc2c(c1)OCO2` (stereo not given), the half-maximal activity concentration (AC50) under setting [1] is 35.5 µM [rising, single point].
With `CCn1c(COc2c(C)cccc2C)nnc1SCc1nc2ccccc2c(=O)[nH]1`, the concentration at half-maximal activity (AC50) was 28.2 µM [falling, single point] under setting [2] and 10 µM [falling, partial curve, poor fit] under setting [1].
For the molecule `Cc1ccc(S(=O)(=O)Nc2ccc(NC(=O)c3cccs3)cc2)cc1`, the concentration at half-maximal activity (AC50) under setting [1] is 3.55 µM [rising, partial curve].
The same measure, in the same setting: for `Cc1ccc(N(CC(=O)NCc2ccc(F)cc2)C(=O)c2csnn2)cc1C` the value was 0.0355 µM [rising, full curve, poor fit]; for `CCCc1nc2ccccc2c(=O)n1/N=C/c1ccc(O)c(O)c1`, 35.5 µM [rising, single point].
Take `CCOC(=O)N/N=C/c1cc(C)n(-c2cccc3ccccc23)c1C`: the AC50 reads like this: under setting [2], 10 µM [rising, partial curve, poor fit]; under setting [1], 14.1 µM [rising, partial curve].
As to `COc1ccc(CN2CCN(CCc3ccccc3)C(CCO)C2)cc1Cn1cncn1` (stereo not given), the AC50 was 2.24 µM [falling, single point] under setting [2] and 1.26 µM [falling, partial curve] under setting [1].
